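Whole-cell assay for inhibitors of Mycobacterium tuberculosis growth, labelled Cornell in the record; the read-out is not stated. The concentration is filed as 10 mM, unlikely as a test dose, so the dose is not known. The record gives no direction; compounds strong in two other growth screens of this library score well above the rest, so higher reads as stronger inhibition. Size under these conditions: about 53,000 compounds, about 900 of them at 50% or above in at least one test.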

Results are given as percent effect.
The controls that fix the scale are not given in the record; negative values are as filed.
This is an unselected part of the compounds tested.

structure | effect
O=C(O)[C@@H]1OCC(=O)N(Cc2cccc(Cl)c2)[C@@H]1c1ccccc1 | 8.521
Cc1ccc(C(=O)N2CCCCC2CNC(N)=O)cc1F (configuration not stated) | -6.044
c1ccc(-c2cnc(CN(Cc3cccnc3)CC3CCCO3)o2)cc1 (configuration not stated) | -11.07
Cc1nc(CNC(=O)Nc2cc(F)ccc2OC(F)F)no1 | 22.9
CCN1CCCC1CNCc1cc2cc3c(cc2[nH]c1=O)OCCO3 (configuration not stated) | 4.628
COCC1CCN(CCCc2cccc(OC)c2)CC1 | -10.56
CC(C)c1nc(C2CCCN2CCS(C)(=O)=O)no1 (configuration not stated) | -23.25
Cc1ccc(-c2nc(CNc3ccc(C(N)=O)c(C)c3)cs2)o1 | 4.986
CCCn1nnc(NCc2ccc(-c3ccc(Br)cc3)o2)n1 | 31.95
Cc1cc(Nc2cnccn2)cc(C2CCCNC2)n1 (configuration not stated) | 14.85
Cc1ccc2c(c1)OCCCC2NC1CCN(C)CC1 (configuration not stated) | -2.404
O=C(NCCc1csc(N2CCCC2)n1)N(C1CCCC1)C1CC1 | 25.35
O=S(=O)(Cc1ccccc1F)N1CCCC1c1nnc2n1CCCCC2 (configuration not stated) | 9.959
COCC(=O)NC(Cc1cc(N(C)C)nc(C2CC2)n1)c1ccccc1 (configuration not stated) | 47.65
CC(=O)N1CCC2(CCN(C(=O)c3cccc(C(F)(F)F)c3)CC2)C1 | -51.54
CC(=O)N1CCCCC1c1nc2c(c(N3CCCCC3)n1)CN(C)CC2 (configuration not stated) | -1.433
CCN1CCC2(CC1)CC(NCc1cccs1)c1ccccc1O2.O=C(O)C(F)(F)F.O=C(O)C(F)(F)F (configuration not stated) | -20.59
Cc1csc(CN2C[C@H](NC(=O)C3CCOCC3)[C@@H](C(C)C)C2)n1 | 5.361
O=C(NCC(F)F)c1ccc(S(=O)(=O)NCCc2ccncc2)cc1 | -11.55
COCCN1CCC2(CCCN(C(=O)c3ccoc3C)C2)C1=O (configuration not stated) | -12.48
COCc1noc(-c2cc(Cl)c3c(c2)OCO3)n1 | 5.801
CCn1ncnc1CN1CCc2[nH]cnc2C1Cc1ccccc1 (configuration not stated) | 22.62
O=C(O)COc1ccc(Cl)cc1CN1CCC2(CCNCC2)CC1 | 13.1
N#Cc1cc(F)c(NCCc2ccc(S(N)(=O)=O)cc2)c(F)c1 | -11.52
COC(=O)c1sccc1S(=O)(=O)NCCC(O)c1ccoc1 (configuration not stated) | -5.521
CCC(=O)N(CC)CCc1nccs1 | 10.24
Clc1ccc(N2CCN(CCCN3CCCCC3)CC2)nc1 | 25.77
Nc1cc2c(nn1)CCN(C(=O)c1csc(-c3ccco3)n1)C2 | 26.49
CC(NS(C)(=O)=O)C(=O)Nc1ccc2oc(C3CC3)nc2c1 (configuration not stated) | -37.3
CCC(=O)NC1CCCN(Cc2ccc(NC(C)=O)cc2)C1 (configuration not stated) | 1.504
COCCn1ccc2ccc(C(=O)O)cc21 | -49.46
C[C@@H]1CN(C(=O)[C@H]2CCCO2)C[C@]12CCN(c1ccsc1)C2=O | -13.51
CCc1ncncc1C(=O)N1CCN(Cc2cscn2)CC1 | -24.44
Cn1nc(C(=O)NC2(c3ccc(Cl)cc3)CCCC2)ccc1=O | -4.915
COCC(=O)N1CCc2ccccc2C12CCNCC2.Cl | -22.19
O=C(CCc1ccccc1)N1CCn2cc(CN3CCCC3)nc2C1 | 16.96
CN(C)C(=O)CO[C@H]1CO[C@@]2(CCN(Cc3ccoc3)C2)C1 | 5.349
Cc1ccccc1CN(Cc1ccccn1)C(=O)CNS(C)(=O)=O | -18.88
c1ccc2c(CC3CN(Cc4nccs4)CCO3)cccc2c1 (configuration not stated) | 27.65
O=C(O)C(F)(F)F.O=C(c1ccncc1F)N1Cc2nc(COCC3CC3)oc2C1 | -5.104
CCOC(=O)CNC(=O)c1cc(-c2ccccc2)nc2ncnn12 | 16.32
Cc1ccccc1OCC(=O)N1CCOC2(CNCCOC2)C1 (configuration not stated) | 18.72
O=C(NC[C@]1(O)CN(Cc2ncccc2F)C[C@H]1O)c1cc[nH]n1 | -1.903
O=C(O)C(F)(F)F.O=C(O)C(F)(F)F.[H][C@]12C[C@@H](C(=O)Nc3cccnc3)CO[C@@]1([H])CCN(c1ncc(F)cn1)C2 | 41.78
O=C(c1ccc(-n2ccnc2)cc1)N1CCN(c2cnccn2)CC1 | -58.11
O=C(c1ccc[nH]1)N1CCCC2(CCCN2Cc2cccnc2)C1 (configuration not stated) | -20.88
CCNc1ccnc(NC2CCN(CC(N)=O)CC2)n1 | -12.26
Cn1cnc2c(N3CCCC3)nc(C3CCN(CC4CC4)CC3)cc21.O=C(O)C(F)(F)F.O=C(O)C(F)(F)F | 18.2
CCc1onc(C)c1C(=O)N1CCC(c2cc3ncccc3cn2)CC1 | -10.62
CNc1cc(C)nc(C2COCCN2CCc2ccc(F)cc2)n1 (configuration not stated) | 3.084
Cc1cccc(CS(=O)(=O)c2nnc(N3CCOCC3)s2)c1 | -46.39
CCC1CN(CCCNS(C)(=O)=O)c2ccccc2O1 (configuration not stated) | 99.54
CCN(C)S(=O)(=O)NCC1CCCN(Cc2ccccc2F)C1 (configuration not stated) | 5.903
CC(=O)OCc1ccc(CN2CCCCCC2c2cc(C)no2)o1 (configuration not stated) | -0.441
O=C(O)C(F)(F)F.O=C(O)C(F)(F)F.c1cncc(OCC2CN(Cc3nccs3)Cc3nccn3C2)c1 (configuration not stated) | 0.3124
O=C(c1cccnc1O)N1CCOC(Cc2cccc(C(F)(F)F)c2)C1 (configuration not stated) | -10.53
CN(C(=O)C1CCC1)C1CCN(c2ccccc2Cl)C1=O (configuration not stated) | 6.41
O=C(c1ccc[nH]1)N1Cc2nccn2CC(COc2cccnc2)C1 (configuration not stated) | -15.59
O=C(NCC(O)(c1cccs1)C1CC1)NC1CCCCC1 (configuration not stated) | -20.38
CN1CC2(CCCN(c3cnccn3)C2)OC1=O (configuration not stated) | -0.09206
COCC1CC2(CCN(Cc3cnn(C)c3)CC2)CN1c1ncccn1.O=C(O)C(F)(F)F.O=C(O)C(F)(F)F (configuration not stated) | -77.72
[H][C@]12OCCC[C@]1([H])N(C(=O)c1ccccn1)C[C@H]2OCc1cccnc1 | 6.609
CO[C@@H]1CCN(C(=O)Cc2ccsc2)[C@H]1Cc1cccnc1.O=C(O)C(F)(F)F | 19.1
O=C(O)c1cccnc1N1CCN(Cc2ccc(F)cc2)C(CCO)C1 (configuration not stated) | -3.449
CC(Cc1ccccn1)N(C)Cc1ccc2c(c1)CCO2 (configuration not stated) | 5.91
CN(Cc1ccncc1)Cc1cnn(-c2ccc(F)cc2)c1 | -7.79
Cc1c(C(=O)N2CC(O)C2)nnn1-c1cccc2cnccc12 | 4.654
Cc1ccc(-c2nc(C(=O)N(C)CC(=O)N3CCCC3)cs2)c(C)c1 | 16.83
CCOC(=O)N1CCC(NC(=O)c2cccc(C3CCCNC3)c2)CC1 (configuration not stated) | -9.582
CN(Cc1cc(-c2cccnc2)no1)C(=O)[C@@H]1CSCN1C | 13.93
O=C(O)C(F)(F)F.O=C(O)C(F)(F)F.[H][C@]12C[C@@H](C(=O)NC)CO[C@@]1([H])CCN(Cc1ccc3ccccc3n1)C2 | 7.674
COc1cccc(CC2(C(=O)O)CCN(c3nccs3)CC2)c1 | 16.44

For reference, 5 entries once more:

structure	effect
Cc1csc(CN2C[C@H](NC(=O)C3CCOCC3)[C@@H](C(C)C)C2)n1	5.361
[H][C@]12OCCC[C@]1([H])N(C(=O)c1ccccn1)C[C@H]2OCc1cccnc1	6.609
CCC(=O)NC1CCCN(Cc2ccc(NC(C)=O)cc2)C1 (configuration not stated)	1.504
CCN1CCCC1CNCc1cc2cc3c(cc2[nH]c1=O)OCCO3 (configuration not stated)	4.628
O=C(c1cccnc1O)N1CCOC(Cc2cccc(C(F)(F)F)c2)C1 (configuration not stated)	-10.53

The values are deposited in ChEMBL (CHEMBL3988442, “University of Dundee, Small-Polar-MMV Screening Library” (2021)).